The supplement of paper PMC10849652
The other results are listed elsewhere or left out.

The chains behind the UniProt entries cited, without tags or fusion partners. Where a name states a change or a piece, a line headed by the entry shows the natural chain unless it says otherwise.
UniProt Q9H0D6: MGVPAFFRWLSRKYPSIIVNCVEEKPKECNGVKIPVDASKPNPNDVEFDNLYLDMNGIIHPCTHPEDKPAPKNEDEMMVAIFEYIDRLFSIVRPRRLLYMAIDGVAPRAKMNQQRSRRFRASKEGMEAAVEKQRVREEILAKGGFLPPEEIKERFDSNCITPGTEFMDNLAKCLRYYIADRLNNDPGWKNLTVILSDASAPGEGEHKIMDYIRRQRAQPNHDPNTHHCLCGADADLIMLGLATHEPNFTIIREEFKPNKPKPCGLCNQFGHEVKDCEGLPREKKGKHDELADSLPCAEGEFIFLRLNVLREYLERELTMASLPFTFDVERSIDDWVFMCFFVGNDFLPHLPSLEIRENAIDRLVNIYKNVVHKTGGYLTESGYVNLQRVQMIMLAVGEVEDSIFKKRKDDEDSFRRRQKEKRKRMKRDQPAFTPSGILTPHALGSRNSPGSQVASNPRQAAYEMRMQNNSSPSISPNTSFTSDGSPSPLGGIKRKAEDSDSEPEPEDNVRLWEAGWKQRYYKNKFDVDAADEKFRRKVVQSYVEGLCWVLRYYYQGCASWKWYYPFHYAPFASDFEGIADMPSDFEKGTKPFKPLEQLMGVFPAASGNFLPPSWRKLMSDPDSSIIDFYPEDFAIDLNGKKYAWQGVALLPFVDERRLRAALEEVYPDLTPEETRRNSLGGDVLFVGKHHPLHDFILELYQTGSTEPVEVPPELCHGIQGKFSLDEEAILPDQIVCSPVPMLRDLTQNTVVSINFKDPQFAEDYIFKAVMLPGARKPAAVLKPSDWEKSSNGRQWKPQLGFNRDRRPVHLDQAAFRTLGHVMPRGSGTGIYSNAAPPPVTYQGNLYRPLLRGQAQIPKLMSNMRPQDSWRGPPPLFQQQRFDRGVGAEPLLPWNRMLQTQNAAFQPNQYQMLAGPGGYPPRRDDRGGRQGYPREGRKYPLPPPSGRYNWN
UniProt Q8WV99: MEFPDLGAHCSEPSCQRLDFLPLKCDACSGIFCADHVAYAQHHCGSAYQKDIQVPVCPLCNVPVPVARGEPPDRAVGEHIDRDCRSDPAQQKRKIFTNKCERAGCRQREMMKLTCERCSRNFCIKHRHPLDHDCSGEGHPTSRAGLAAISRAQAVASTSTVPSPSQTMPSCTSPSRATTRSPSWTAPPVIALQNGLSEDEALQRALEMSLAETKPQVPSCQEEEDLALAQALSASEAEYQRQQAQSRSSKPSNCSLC
UniProt Q9UBH6: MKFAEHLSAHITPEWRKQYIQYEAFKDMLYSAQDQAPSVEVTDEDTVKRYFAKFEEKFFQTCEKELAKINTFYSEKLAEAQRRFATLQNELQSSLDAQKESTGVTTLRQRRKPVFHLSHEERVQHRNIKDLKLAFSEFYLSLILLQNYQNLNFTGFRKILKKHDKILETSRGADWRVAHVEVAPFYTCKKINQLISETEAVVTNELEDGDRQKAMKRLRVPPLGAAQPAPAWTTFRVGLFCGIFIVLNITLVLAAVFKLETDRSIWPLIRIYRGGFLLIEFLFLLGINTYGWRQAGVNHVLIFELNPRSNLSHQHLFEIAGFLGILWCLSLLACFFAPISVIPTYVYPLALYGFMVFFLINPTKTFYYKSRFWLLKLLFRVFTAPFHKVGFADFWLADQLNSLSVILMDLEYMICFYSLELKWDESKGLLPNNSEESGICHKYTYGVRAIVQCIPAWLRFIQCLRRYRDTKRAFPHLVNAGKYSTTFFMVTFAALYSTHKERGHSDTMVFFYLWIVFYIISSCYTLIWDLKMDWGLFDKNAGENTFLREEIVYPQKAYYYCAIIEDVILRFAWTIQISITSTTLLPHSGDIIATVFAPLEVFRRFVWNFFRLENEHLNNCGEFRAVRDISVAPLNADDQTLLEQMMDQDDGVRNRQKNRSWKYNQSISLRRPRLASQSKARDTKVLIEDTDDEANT
UniProt Q9HBF4: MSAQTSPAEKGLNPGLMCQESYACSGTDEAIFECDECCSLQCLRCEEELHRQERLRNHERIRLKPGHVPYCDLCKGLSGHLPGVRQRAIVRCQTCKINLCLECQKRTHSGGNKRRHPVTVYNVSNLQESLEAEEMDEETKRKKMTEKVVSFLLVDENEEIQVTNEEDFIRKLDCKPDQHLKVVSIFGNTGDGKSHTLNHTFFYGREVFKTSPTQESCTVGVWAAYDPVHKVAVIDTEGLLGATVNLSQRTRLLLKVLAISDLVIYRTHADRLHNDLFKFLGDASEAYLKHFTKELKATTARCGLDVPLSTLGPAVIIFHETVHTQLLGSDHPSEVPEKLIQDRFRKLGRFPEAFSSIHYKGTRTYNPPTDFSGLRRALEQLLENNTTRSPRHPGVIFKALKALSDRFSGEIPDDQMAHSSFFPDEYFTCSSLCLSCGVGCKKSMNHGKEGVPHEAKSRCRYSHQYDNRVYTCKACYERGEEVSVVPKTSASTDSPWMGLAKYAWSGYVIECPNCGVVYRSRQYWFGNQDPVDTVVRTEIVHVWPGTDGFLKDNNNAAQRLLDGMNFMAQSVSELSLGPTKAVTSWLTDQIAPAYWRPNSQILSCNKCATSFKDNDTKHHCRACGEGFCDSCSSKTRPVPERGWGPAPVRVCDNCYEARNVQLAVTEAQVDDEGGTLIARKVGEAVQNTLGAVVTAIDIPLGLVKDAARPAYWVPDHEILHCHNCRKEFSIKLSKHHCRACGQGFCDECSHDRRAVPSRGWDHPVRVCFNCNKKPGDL
UniProt Q6FIF0: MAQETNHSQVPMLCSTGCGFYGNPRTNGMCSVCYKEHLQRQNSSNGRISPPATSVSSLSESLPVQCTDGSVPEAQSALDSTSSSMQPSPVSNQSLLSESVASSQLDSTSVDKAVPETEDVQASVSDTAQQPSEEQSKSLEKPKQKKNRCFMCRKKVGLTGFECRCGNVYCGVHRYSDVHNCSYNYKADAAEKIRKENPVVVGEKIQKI
UniProt P67809, whole entry, looked up: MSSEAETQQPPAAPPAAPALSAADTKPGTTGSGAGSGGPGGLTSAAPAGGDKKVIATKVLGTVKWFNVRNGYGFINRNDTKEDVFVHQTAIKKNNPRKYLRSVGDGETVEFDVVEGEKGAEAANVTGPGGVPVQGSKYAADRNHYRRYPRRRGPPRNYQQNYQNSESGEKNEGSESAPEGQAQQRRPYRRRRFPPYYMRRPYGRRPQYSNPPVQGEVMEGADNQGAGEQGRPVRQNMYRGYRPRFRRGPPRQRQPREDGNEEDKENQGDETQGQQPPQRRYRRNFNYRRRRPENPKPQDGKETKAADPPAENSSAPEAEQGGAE
UniProt Q9ULJ3: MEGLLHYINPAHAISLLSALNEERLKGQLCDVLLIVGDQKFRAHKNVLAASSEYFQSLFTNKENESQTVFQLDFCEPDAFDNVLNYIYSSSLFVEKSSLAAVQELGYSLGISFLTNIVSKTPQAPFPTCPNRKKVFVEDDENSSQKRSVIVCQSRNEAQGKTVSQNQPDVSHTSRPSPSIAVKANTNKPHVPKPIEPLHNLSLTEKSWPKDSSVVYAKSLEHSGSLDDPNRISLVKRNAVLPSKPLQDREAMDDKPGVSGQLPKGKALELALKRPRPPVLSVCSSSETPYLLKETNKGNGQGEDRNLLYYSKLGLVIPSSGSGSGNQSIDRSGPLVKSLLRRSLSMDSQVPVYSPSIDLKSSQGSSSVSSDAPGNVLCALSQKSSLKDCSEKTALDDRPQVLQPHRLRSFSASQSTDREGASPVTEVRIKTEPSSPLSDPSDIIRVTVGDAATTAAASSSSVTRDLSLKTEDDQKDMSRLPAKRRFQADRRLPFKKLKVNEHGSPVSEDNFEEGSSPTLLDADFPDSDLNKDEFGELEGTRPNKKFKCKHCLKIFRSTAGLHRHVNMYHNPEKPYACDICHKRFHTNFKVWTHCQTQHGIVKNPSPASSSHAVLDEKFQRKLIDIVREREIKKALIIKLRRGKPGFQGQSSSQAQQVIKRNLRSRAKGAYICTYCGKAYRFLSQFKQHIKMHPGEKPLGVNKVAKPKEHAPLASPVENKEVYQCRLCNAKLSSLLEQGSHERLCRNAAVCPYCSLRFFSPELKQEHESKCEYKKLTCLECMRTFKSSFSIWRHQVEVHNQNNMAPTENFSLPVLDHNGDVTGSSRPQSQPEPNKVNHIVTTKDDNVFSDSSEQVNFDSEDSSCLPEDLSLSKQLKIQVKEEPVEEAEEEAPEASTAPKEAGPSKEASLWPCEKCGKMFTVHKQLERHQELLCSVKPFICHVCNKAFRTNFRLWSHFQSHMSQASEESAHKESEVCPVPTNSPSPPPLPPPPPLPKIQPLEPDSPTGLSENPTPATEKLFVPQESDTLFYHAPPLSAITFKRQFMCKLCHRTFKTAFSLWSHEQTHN
UniProt O14980, whole entry, looked up: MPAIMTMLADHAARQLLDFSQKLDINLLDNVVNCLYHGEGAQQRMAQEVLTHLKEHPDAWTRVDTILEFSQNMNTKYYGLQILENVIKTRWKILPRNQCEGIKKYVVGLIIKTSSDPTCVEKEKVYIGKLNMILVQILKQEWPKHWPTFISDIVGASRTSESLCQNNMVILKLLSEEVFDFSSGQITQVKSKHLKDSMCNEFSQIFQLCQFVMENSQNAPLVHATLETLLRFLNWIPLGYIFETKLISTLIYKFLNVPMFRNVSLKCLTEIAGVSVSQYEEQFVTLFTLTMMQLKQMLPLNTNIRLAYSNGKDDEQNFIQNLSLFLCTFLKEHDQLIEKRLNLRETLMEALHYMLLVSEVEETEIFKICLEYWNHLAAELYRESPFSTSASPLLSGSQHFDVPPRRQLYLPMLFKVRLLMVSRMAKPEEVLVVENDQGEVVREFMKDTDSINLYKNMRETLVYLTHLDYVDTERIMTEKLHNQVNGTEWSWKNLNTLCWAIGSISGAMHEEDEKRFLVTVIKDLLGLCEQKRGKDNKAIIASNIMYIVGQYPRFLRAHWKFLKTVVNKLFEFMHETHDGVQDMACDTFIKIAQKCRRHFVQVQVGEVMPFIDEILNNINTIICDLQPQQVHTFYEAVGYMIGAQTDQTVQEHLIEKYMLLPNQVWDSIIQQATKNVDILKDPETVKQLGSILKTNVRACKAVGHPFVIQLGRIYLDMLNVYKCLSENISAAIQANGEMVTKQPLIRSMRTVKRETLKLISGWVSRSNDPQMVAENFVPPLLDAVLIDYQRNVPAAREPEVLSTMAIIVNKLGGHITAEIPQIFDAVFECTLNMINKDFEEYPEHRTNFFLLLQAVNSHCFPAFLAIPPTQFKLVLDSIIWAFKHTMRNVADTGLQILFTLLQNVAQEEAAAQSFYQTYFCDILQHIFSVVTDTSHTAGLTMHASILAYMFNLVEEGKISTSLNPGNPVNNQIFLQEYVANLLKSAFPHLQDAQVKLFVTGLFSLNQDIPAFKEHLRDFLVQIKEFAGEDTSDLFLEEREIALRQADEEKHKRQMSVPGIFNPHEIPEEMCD
UniProt Q96QU8: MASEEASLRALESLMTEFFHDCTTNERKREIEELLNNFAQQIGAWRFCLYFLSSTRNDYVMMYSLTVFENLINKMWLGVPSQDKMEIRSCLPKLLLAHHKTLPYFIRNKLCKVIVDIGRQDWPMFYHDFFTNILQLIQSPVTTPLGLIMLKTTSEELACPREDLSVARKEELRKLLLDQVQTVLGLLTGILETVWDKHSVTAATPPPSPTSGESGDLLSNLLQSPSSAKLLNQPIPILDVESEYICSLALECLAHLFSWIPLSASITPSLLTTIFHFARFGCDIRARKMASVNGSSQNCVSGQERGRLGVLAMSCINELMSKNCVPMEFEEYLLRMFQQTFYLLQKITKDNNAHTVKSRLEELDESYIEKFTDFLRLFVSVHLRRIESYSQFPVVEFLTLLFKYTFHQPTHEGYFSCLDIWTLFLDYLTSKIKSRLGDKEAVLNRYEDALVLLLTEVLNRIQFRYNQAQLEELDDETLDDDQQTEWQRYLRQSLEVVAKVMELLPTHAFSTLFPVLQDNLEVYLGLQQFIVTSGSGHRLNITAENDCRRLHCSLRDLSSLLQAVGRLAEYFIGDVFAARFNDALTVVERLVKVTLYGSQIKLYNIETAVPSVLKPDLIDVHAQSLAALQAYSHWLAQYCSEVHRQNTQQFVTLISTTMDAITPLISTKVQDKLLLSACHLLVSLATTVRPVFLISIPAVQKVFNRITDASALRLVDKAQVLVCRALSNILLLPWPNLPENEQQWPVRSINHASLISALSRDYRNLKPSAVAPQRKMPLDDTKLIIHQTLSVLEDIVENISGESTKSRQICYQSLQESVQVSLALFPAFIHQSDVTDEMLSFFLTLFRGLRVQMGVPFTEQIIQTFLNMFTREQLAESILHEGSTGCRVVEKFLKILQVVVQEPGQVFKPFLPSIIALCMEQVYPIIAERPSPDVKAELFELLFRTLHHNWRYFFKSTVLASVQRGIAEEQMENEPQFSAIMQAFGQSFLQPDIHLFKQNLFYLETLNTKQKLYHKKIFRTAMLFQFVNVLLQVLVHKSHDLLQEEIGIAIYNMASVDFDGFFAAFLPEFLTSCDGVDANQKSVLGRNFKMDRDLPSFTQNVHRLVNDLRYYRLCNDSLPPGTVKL

Assays:
Assay in all cases: log2 fold change, soluble protein after heating vs DMSO (PISA); higher = thermal stabilisation; K562 cells, 10 uM, 30 min; active = over 0.2 and 3.5 SD of the protein, either way, in both replicates (recomputed)
[1] = compound: COC1=CC=C(C=C1)CN2C=CC3=C2C=C(C=C3)C(=O)NO
Procedure, shortened: (§1)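 Quantification of soluble protein used TMTpro 16plex LC-MS/MS, with channel sums equalised. Samples were the supernatant after 21,000xg for 90 min of pooled aliquots from K562 cells (2×10^6 cells/mL) treated with 10 μM compound for 30 min, heated for 3 min over 48°C-58°C, and extracted in PBS with 0.5% NP-40 at 4°C. Values, from duplicates, describe thermal stability against control samples on a log2 fold-change scale.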

filanesib = compound: CON(C)C(=O)N1N=C(c2cc(F)ccc2F)S[C@@]1(CCCN)c1ccccc1 [filanesib]
Procedure, shortened: as §1

zotarolimus = compound: CO[C@H]1C[C@@H]2CC[C@@H](C)[C@@](O)(O2)C(=O)C(=O)N2CCCC[C@H]2C(=O)O[C@H]([C@H](C)C[C@@H]2CC[C@H](n3cnnn3)[C@H](OC)C2)CC(=O)[C@H](C)/C=C(\C)[C@@H](O)[C@@H](OC)C(=O)[C@H](C)C[C@H](C)/C=C/C=C/C=C/1C [zotarolimus]
Procedure, shortened: as §1

idasanutlin = compound: COc1cc(C(=O)O)ccc1NC(=O)[C@@H]1N[C@@H](CC(C)(C)C)[C@](C#N)(c2ccc(Cl)cc2F)[C@H]1c1cccc(Cl)c1F [idasanutlin]
Procedure, shortened: as §1

alisertib = compound: COc1cc(Nc2ncc3c(n2)-c2ccc(Cl)cc2C(c2c(F)cccc2OC)=NC3)ccc1C(=O)O [alisertib]
Procedure, shortened: as §1

[2] = compound: COc1cc2nc(-c3cc(F)ccc3O)nc(N[C@@H]3CNC[C@H]3C(C)(C)O)c2cc1OC
Procedure, shortened: as §1

gefitinib = compound: COc1cc2ncnc(Nc3ccc(F)c(Cl)c3)c2cc1OCCCN1CCOCC1 [gefitinib]
Procedure, shortened: as §1

[3] = compound: COc1cccc2cc(-c3nc([C@H]4CC[C@H](C(=O)O)CC4)n4ncnc(N)c34)[nH]c12
Procedure, shortened: as §1

lapatinib = compound: CS(=O)(=O)CCNCc1ccc(-c2ccc3ncnc(Nc4ccc(OCc5cccc(F)c5)c(Cl)c4)c3c2)o1 [lapatinib]
Procedure, shortened: as §1

pictilisib = compound: CS(=O)(=O)N1CCN(Cc2cc3nc(-c4cccc5[nH]ncc45)nc(N4CCOCC4)c3s2)CC1 [pictilisib]
Procedure, shortened: as §1

[4] = compound: CS(=O)(=O)c1ccc(-c2cnc(N)c(C(=O)Nc3ccccc3)n2)cc1
Procedure, shortened: as §1

crizotinib = compound: C[C@@H](Oc1cc(-c2cnn(C3CCNCC3)c2)cnc1N)c1c(Cl)ccc(F)c1Cl [crizotinib]
Procedure, shortened: as §1

[5] = compound: C[C@@H]1COCCN1C2=NC(=NC(=C2)C3(CC3)S(=O)(=O)C)C4=C5C=CNC5=CC=C4
Procedure, shortened: as §1

[6] = compound: C[C@H](C1=CC=C(C=C1)C(=O)NC2=C3C=CNC3=NC=C2)N
Procedure, shortened: as §1

duvelisib = compound: C[C@H](Nc1ncnc2nc[nH]c12)c1cc2cccc(Cl)c2c(=O)n1-c1ccccc1 [duvelisib]
Procedure, shortened: as §1

gandotinib = compound: Cc1cc(Nc2cc(CN3CCOCC3)c3nc(C)c(Cc4ccc(Cl)cc4F)n3n2)n[nH]1 [gandotinib]
Procedure, shortened: as §1

tozasertib = compound: Cc1cc(Nc2cc(N3CCN(C)CC3)nc(Sc3ccc(NC(=O)C4CC4)cc3)n2)n[nH]1 [tozasertib]
Procedure, shortened: as §1

[7] = compound: Cc1cc(SCc2sc(-c3ccc(C(F)(F)F)cc3)nc2C)ccc1OCC(=O)O
Procedure, shortened: as §1

doramapimod = compound: Cc1ccc(-n2nc(C(C)(C)C)cc2NC(=O)Nc2ccc(OCCN3CCOCC3)c3ccccc23)cc1 [doramapimod]
Procedure, shortened: as §1

ispinesib = compound: Cc1ccc(C(=O)N(CCCN)[C@@H](c2nc3cc(Cl)ccc3c(=O)n2Cc2ccccc2)C(C)C)cc1 [ispinesib]
Procedure, shortened: as §1

Measured: log2 fold change

XXYLT1 (UniProt Q8NBI6)
inactive: [1] -0.021 | filanesib -0.042 | zotarolimus 0 | idasanutlin -0.063 | alisertib -0.007 | [2] -0.014 | gefitinib -0.002 | [3] 0.131 | lapatinib 0.059 | pictilisib 0.008 | [4] 0.009 | crizotinib -0.045 | [5] 0.019 | [6] 0.048 | duvelisib 0.003 | gandotinib 0.037 | tozasertib 0.014 | [7] 0.028 | doramapimod 0.045 | ispinesib 0.002

XRN2 (UniProt Q9H0D6)
inactive: [1] -0.066 | filanesib 0.036 | zotarolimus -0.027 | idasanutlin 0.042 | alisertib -0.027 | [2] 0.015 | gefitinib -0.012 | [3] 0.027 | lapatinib 0.049 | pictilisib -0.016 | [4] -0.002 | crizotinib -0.009 | [5] -0.031 | [6] 0.131 | duvelisib 0.02 | gandotinib -0.006 | tozasertib -0.031 | [7] 0.006 | doramapimod 0 | ispinesib -0.009

ZFAND2B (UniProt Q8WV99)
inactive: [1] -0.064 | filanesib -0.12 | zotarolimus -0.029 | idasanutlin -0.009 | alisertib -0.055 | [2] -0.038 | gefitinib 0.008 | [3] -0.015 | lapatinib 0.048 | pictilisib -0.036 | [4] 0.074 | crizotinib 0.055 | [5] 0.054 | [6] 0.04 | duvelisib -0.046 | gandotinib 0.006 | tozasertib -0.014 | [7] -0.034 | doramapimod 0.01 | ispinesib -0.005

XPR1 (UniProt Q9UBH6)
inactive: [1] -0.056 | filanesib 0.072 | zotarolimus -0.002 | idasanutlin -0.009 | alisertib -0.067 | [2] 0.007 | gefitinib 0.001 | [3] 0.013 | lapatinib 0.016 | pictilisib 0.07 | [4] 0.025 | crizotinib 0.037 | [5] 0.084 | [6] -0.047 | duvelisib 0.023 | gandotinib -0.034 | tozasertib -0.034 | [7] 0.003 | doramapimod 0.016 | ispinesib -0.001

ZMIZ1 (UniProt Q9ULJ6)
inactive: [1] -0.009 | filanesib -0.003 | zotarolimus -0.037 | idasanutlin -0.048 | alisertib -0.031 | [2] 0.069 | gefitinib 0.125 | [3] 0.063 | lapatinib -0.021 | pictilisib 0.04 | [4] 0.005 | crizotinib 0 | [5] 0.017 | [6] 0.022 | duvelisib 0.024 | gandotinib -0.028 | tozasertib -0.028 | [7] 0.038 | doramapimod -0.026 | ispinesib 0.014

YTHDF3 (UniProt Q7Z739)
inactive: [1] 0.052 | filanesib -0.004 | zotarolimus 0.042 | idasanutlin -0.052 | alisertib -0.021 | [2] 0.032 | gefitinib 0.002 | [3] -0.001 | lapatinib 0.039 | pictilisib 0.025 | [4] 0.011 | crizotinib -0.02 | [5] -0.015 | [6] -0.018 | duvelisib 0.014 | gandotinib -0.046 | tozasertib 0.001 | [7] 0.039 | doramapimod -0.005 | ispinesib -0.041

ZFYVE1 (UniProt Q9HBF4)
inactive: [1] 0.037 | filanesib 0.099 | zotarolimus -0.016 | idasanutlin -0.133 | alisertib -0.048 | [2] 0.206 | gefitinib 0.014 | [3] 0.067 | lapatinib -0.141 | pictilisib 0.043 | [4] -0.028 | crizotinib 0.007 | [5] -0.052 | [6] 0.007 | duvelisib 0.02 | gandotinib -0.082 | tozasertib 0.018 | [7] 0.003 | doramapimod 0.022 | ispinesib -0.071

YLPM1 (UniProt P49750)
inactive: [1] 0.018 | filanesib 0.083 | zotarolimus -0.001 | idasanutlin -0.026 | alisertib 0.017 | [2] 0.1 | gefitinib 0.002 | [3] 0.053 | lapatinib -0.028 | pictilisib 0.065 | [4] -0.051 | crizotinib -0.08 | [5] 0.015 | [6] -0.037 | gandotinib -0.117 | [7] 0 | doramapimod 0 | ispinesib 0.034

ZFAND6 (UniProt Q6FIF0)
inactive: [1] 0.066 | filanesib -0.111 | zotarolimus -0.045 | idasanutlin -0.096 | alisertib -0.079 | [2] 0.017 | gefitinib -0.005 | [3] 0.046 | lapatinib -0.106 | pictilisib 0.063 | [4] -0.036 | crizotinib -0.041 | [5] 0.127 | [6] 0.031 | gandotinib -0.004 | [7] -0.038 | doramapimod 0.017 | ispinesib -0.082

YBX1 (UniProt P67809)
inactive: [1] -0.019 | filanesib 0.202 | zotarolimus -0.048 | idasanutlin 0.159 | alisertib -0.066 | [2] -0.054 | gefitinib -0.096 | [3] -0.091 | lapatinib 0.317 | pictilisib 0.033 | [4] -0.101 | crizotinib 0 | [5] -0.368 | [6] 0.28 | gandotinib 0.334 | [7] -0.024 | doramapimod 0.047 | ispinesib -0.093

ZBTB21 (UniProt Q9ULJ3)
inactive: [1] 0.026 | filanesib 0.075 | zotarolimus 0.004 | idasanutlin 0.026 | alisertib -0.154 | [2] 0.022 | gefitinib -0.125 | [3] 0.129 | lapatinib 0.032 | pictilisib -0.035 | [4] 0.048 | crizotinib -0.1 | [5] -0.101 | [6] 0.125 | gandotinib 0.074 | [7] 0.043 | doramapimod 0.069 | ispinesib -0.09

Copied from the entries so far (2 entries):
YLPM1 (UniProt P49750)
inactive: [1] 0.018 | filanesib 0.083 | zotarolimus -0.001 | idasanutlin -0.026 | alisertib 0.017 | [2] 0.1 | gefitinib 0.002 | [3] 0.053 | lapatinib -0.028 | pictilisib 0.065 | [4] -0.051 | crizotinib -0.08 | [5] 0.015 | [6] -0.037 | gandotinib -0.117 | [7] 0 | doramapimod 0 | ispinesib 0.034

ZFAND6 (UniProt Q6FIF0)
inactive: [1] 0.066 | filanesib -0.111 | zotarolimus -0.045 | idasanutlin -0.096 | alisertib -0.079 | [2] 0.017 | gefitinib -0.005 | [3] 0.046 | lapatinib -0.106 | pictilisib 0.063 | [4] -0.036 | crizotinib -0.041 | [5] 0.127 | [6] 0.031 | gandotinib -0.004 | [7] -0.038 | doramapimod 0.017 | ispinesib -0.082

(continued)

ZFP91 (UniProt Q96JP5)
inactive: [1] -0.076 | filanesib 0.183 | zotarolimus -0.028 | idasanutlin 0.029 | alisertib -0.013 | [2] -0.095 | gefitinib 0.02 | [3] -0.042 | lapatinib 0.173 | pictilisib -0.07 | [4] -0.072 | crizotinib 0 | [5] -0.124 | [6] 0.154 | gandotinib 0.214 | [7] 0.042 | doramapimod 0.109 | ispinesib -0.227

XPO1 (UniProt O14980)
inactive: [1] 0.074 | filanesib -0.121 | zotarolimus 0.004 | idasanutlin -0.123 | alisertib -0.003 | [2] 0.023 | gefitinib -0.032 | [3] 0.001 | lapatinib -0.023 | pictilisib -0.071 | [4] -0.016 | crizotinib -0.138 | [5] 0.089 | [6] 0.006 | gandotinib -0.223 | [7] 0.094 | doramapimod -0.034 | ispinesib -0.081

ZDHHC20 (UniProt Q5W0Z9)
inactive: [1] -0.034 | filanesib 0.008 | zotarolimus -0.15 | idasanutlin -0.014 | alisertib -0.052 | [2] -0.086 | gefitinib -0.067 | [3] 0.11 | lapatinib 0.063 | pictilisib 0.066 | [4] 0.067 | crizotinib 0.017 | [5] 0.131 | [6] 0.051 | gandotinib 0.018 | [7] -0.249 | doramapimod -0.025 | ispinesib -0.076

YIPF5 isoform 3 (UniProt Q969M3)
inactive: [1] -0.065 | filanesib 0.017 | zotarolimus 0.006 | idasanutlin -0.051 | alisertib -0.009 | [2] 0.13 | gefitinib 0.024 | [3] 0.017 | lapatinib -0.163 | pictilisib 0.027 | [4] -0.093 | crizotinib 0.081 | [5] 0.019 | [6] -0.077 | gandotinib -0.1 | [7] 0.015 | doramapimod 0.041 | ispinesib 0.08

XPO6 (UniProt Q96QU8)
inactive: [1] -0.453 | filanesib -0.074 | zotarolimus 0.047 | idasanutlin -0.079 | alisertib 0.171 | [2] 0.064 | gefitinib -0.029 | [3] -0.052 | lapatinib -0.055 | pictilisib -0.025 | [4] -0.033 | crizotinib 0.177 | [5] -0.277 | [6] 0.031 | gandotinib 0.104 | [7] 0.027 | doramapimod 0.179 | ispinesib 0

YAE1 (UniProt Q9NRH1)
inactive: [1] 0.013 | filanesib 0.133 | zotarolimus 0 | idasanutlin 0.124 | alisertib -0.065 | [2] 0.125 | gefitinib -0.016 | [3] 0.016 | lapatinib -0.052 | pictilisib 0.021 | [4] 0.011 | crizotinib -0.018 | [5] -0.039 | [6] 0.1 | gandotinib 0.007 | [7] 0.021 | doramapimod -0.033 | ispinesib 0.063
